Assay results taken from publication PMC11323550.
No constants are given. Whether binding was seen depends on the method and setting. Binding seen in cells or lysates may run through a third protein. A yes stands for co-enrichment or nearness to the bait. Other partners may have been found. Sequences can lack the tags named with a protein.

Amino acid sequences for entries named in this document (tags omitted). A change or cut given only in a name is not applied to a line headed by its entry.
UniProt P0A068: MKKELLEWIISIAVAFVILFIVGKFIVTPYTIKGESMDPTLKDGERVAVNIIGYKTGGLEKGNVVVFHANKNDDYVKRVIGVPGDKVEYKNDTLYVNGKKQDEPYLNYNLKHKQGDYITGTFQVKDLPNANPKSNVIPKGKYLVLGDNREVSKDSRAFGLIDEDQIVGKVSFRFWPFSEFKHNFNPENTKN

Target: T1, MspA tagged at the C-terminus with mCherry (S. aureus) (UniProt Q2FVZ6)
T1 sequence: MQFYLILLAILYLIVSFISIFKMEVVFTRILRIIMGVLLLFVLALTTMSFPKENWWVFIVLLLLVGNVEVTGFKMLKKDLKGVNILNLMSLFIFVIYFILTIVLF
Test: affinity purification with mass spectrometry; MspA-mCherry as bait, captured on ChromoTek RFP-Trap Magnetic Agarose beads from S. aureus SH1000 lysate in co-IP buffer (50-mM Tris/Cl, pH 7.5, 150-mM NaCl, 20-mM MgCl, 0.2% Tween 20), 4°C overnight; eluate analysed by liquid chromatography-mass spectrometry against the negative control SH1000 pCN34; biological triplicate

Row | Molecule | binding
1 | FmtA (S. aureus (endogenous in SH1000)) (enzyme) | binds
2 | SpsB, type I signal peptidase (endogenous) (from UniProt P0A068) (enzyme) | binds
3 | TagH (S. aureus (endogenous in SH1000)) | binds
4 | DltD protein (protein, UniProt Q2FZW3 1-391) MKLKPFLPILISGAVFIVFLLLPASWFTGLVNEKTVEDNRTSLTDQVLKGTLIQDKLYESNKYYPIYGSSELGKDDPFNPAIALNKHNANKKAFLLGAGGSTDLINAVELASQYDKLKGKKLTFIISPQWFTNHGLTNQNFDARMSQTQINQMFQQKNMSTELKRRYAQRLLQFPHVHNKEYLKSYAKNPKETKDSYISGFKENQLIKIEAIKSLFAMDKSPLEHVKPATKPDASWDEMKQKAVEIGKADTTSNKFGIRDQYWKLIQESKRKVRRDYEFNVNSPEFQDLELLVKTMRAAGADVQYVSIPSNGVWYDHIGIDKERRQAVYKKIHSTVVDNGGKIYDMTDKDYEKYVISDAVHIGWKGWVYMDEQIAKHMKGEPQPEVDKPKN | binds
5 | cell wall amidase LytH (enzyme, UniProt O32421 41-291) EDSGNITITENAELRTGPNAAYPVIYKVEKGDHFKKIGKVGKWIEVEDTSSNEKGWIAGWHTNLDIVADNTKEKNPLQGKTIVLDPGHGGSDQGASSNTKYKSLEKDYTLKTAKELQRTLEKEGATVKMTRTDDTYVSLENRDIKGDAYLSIHNDALESSNANGMTVYWYHDNQRALADTLDATIQKKGLLSNRGSRQENYQVLRQTKVPAVLLELGYISNPTDETMIKDQLHRQILEQAIVDGLKIYFSA | binds
